About 140 (12%) of roughly 1,200 compounds were called active.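 How the source made its calls: active means fitted curve falls past -35% activity change at a dose under twice the top valid dose, in every replicate test; inconclusive means replicate tests disagree on the call; inactive means the rest, including activity in the opposite direction.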 This part holds few or none of the hits.
experiment: restoration of mutant CFTR halide transport – FRT cells, YFP quenching, cherry-pick, dose response (AID 743402); conditions: FRT CFTR-F508del YFP iodide quenching, 24 h, channel opened with forskolin and a potentiator; at 26 µM (top of the series) unless noted;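 further: compounds act as correctors raising surface CFTR-F508del before acute activation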

Activity change, negative = more quenching (active), inactive:
Cc1cc(C)c2nc(Cl)c(CN(Cc3ccco3)C(=O)Nc3ccccc3C)cc2c1 13.3%
O=[N+]([O-])c1ccc(N=Nc2c(Cl)cc(O)cc2Cl)cc1 18.8%
COc1ccc2c(c1)sc(N)[n+]2Cc1cc(C)cc2cccnc12 13.3%
NC(=O)CC(NC(=O)Cc1ccc(Br)cc1)c1ccc(NC2CC3CCC2C3)c([N+](=O)[O-])c1 (stereo not drawn) 10%
COC(=O)c1ccc(S(=O)(=O)N2CCc3ccccc32)cc1 -7.69%
Cc1ccc(Nc2nc(CSc3nnc(-c4cccnc4)n3-c3ccccc3F)cs2)cc1 0%
CCN(CC)c1ccc(/C=N/NC(=O)c2cnccn2)c(O)c1 3.33%
CC1=NN(c2ccccc2)C(=O)C1N=Nc1cccc(O)c1 (stereo not drawn) 0%
CCN(C(=O)COC(=O)c1cc(-c2ccccc2)nc2c1c(C)nn2-c1ccc(C)cc1)C1CCS(=O)(=O)C1 (stereo not drawn) -17.9%
COc1ccc(NC(=O)C2(C)Cc3c(-c4cccc(NC(C)=O)c4)ccnc3O2)cc1 (stereo not drawn) 13.3%
Cc1ccc(N2CC(C(=O)N(C)CC(=O)Nc3ccc(Cl)c(C(F)(F)F)c3)CC2=O)cc1 (stereo not drawn) 3.33%
COC(=O)C1(C)CCCC2(C)C3CCC(C(C)C)C(CO)C3C(CO)CC12 (stereo not drawn) 13.3%
COc1ccc2c(c1OC)OCC2C (stereo not drawn) 0%
COc1cc(OC)c2c(-c3cccc(-c4ccc(OC)c(F)c4)c3)cc(=O)oc2c1 6.67%
Cc1nn(C)c(C)c1/C=C/C(=O)O 16.2%
O=C(C(Cc1ccccc1)n1cccc1)N1CCCCC1 (stereo not drawn) 6.67%
C#Cc1ccc(C(=O)Nc2ccc(N3CCC(C)CC3)c(C(N)=O)c2)cc1 -3.12%
CO[C@@H](CN(C)S(=O)(=O)c1ccc(C)cc1)[C@H](C)CN([C@@H](C)CO)S(=O)(=O)c1cccc(Cl)c1 12.5%
COc1c(O[C@@H]2O[C@H](CO)[C@@H](O)[C@H](O)[C@H]2O)cc2c(c1OC)-c1ccc(SC)c(=O)cc1C(NC(C)=O)CC2 (stereo partly drawn) 14.3%
CCNC(=O)C1(C)CCN(C(=O)c2cc(F)ccc2C)C1 (stereo not drawn) 3.12%
COc1cc(OC)cc(-c2cc3ccc(OC)cc3cn2)c1 -9.58%
COc1cccc(C2=CC(c3ccccc3)n3nnnc3N2)c1 (stereo not drawn) -6.97%
CO[C@@H]1CN(C)C(=O)c2cc(NC(=O)Nc3c(C)noc3C)ccc2OC[C@@H](C)N(C)C[C@@H]1C 0%
O=C(C[C@@H]1C[C@H]2c3cc(NC(=O)CC4CC4)ccc3O[C@H]2[C@H](CO)O1)NCc1cccc(F)c1 6.67%
O=C(CN1CCCC1)N/N=C/c1c(O)ccc2ccccc12 -6.67%
COc1ccc(-c2ccc3c(c2)[C@H]2[C@H](CCN2S(=O)(=O)c2ccc(OC)cc2)[C@@H](CO)N3)cc1 -10.7% [at 23.5 µM]
CCN(C(=O)COc1ccc2ccc(=O)oc2c1)C1CCCCC1 17.9%
CCN(C(=O)COC(=O)c1cccc2ccccc12)c1c(N)n(Cc2ccccc2)c(=O)[nH]c1=O 3.33%
C[C@@H]1CN([C@H](C)CO)S(=O)(=O)c2ccc(/C=C/c3ccccc3)cc2O[C@H]1CN(C)C(=O)NC1CCCCC1 5.17%
Cc1ccc(-c2ccc3c(c2)O[C@@H](CN(C)C(=O)Nc2ccc(F)cc2)[C@@H](C)CN([C@@H](C)CO)S3(=O)=O)cc1 10.7%
Cc1ccc(C2NC(=O)c3ccccc3N2)c(C)c1 (stereo not drawn) 3.33%
COc1ccc2c3c([nH]c2c1)[C@@H](CO)N(S(=O)(=O)c1cn(C)cn1)CC31CCN(CC2CCCCC2)CC1 1.72%
Cc1ccc(C2(C)NC(=O)N(CC(=O)Nc3nc(-c4ccccn4)cs3)C2=O)cc1 (stereo not drawn) -12.8%
NC(=O)c1cc(Cl)ccc1OCC(=O)NC1CC1 4.17%
Cc1cccc(N2CCN(C(=O)c3c(-c4ccccc4)noc3C)CC2)c1C 3.33%
CC(C)CC1Nc2ncnc(N3CCN(c4ccccn4)CC3)c2N(Cc2ccc(Br)cc2)C1=O (stereo not drawn) 3.33%
Cc1cccc(N(C)C(=O)c2cc3c(=O)[nH]c4ccc(C)cc4c3s2)c1 -6.67%
COCOc1cccc(CN2CCC(C)(Oc3cccc(C#N)c3)C2)c1 (stereo not drawn) 22.3%
C#C[C@]1(O)CC[C@H]2[C@@H]3CCc4cc(OC)ccc4[C@H]3CC[C@@]21C -31.7%
COc1cc(OC)cc(C(=O)N2CC(=O)Nc3ccccc32)c1 -13.3%
CN(C[C@H](Cc1ccccc1)N(C[C@H](Cc1ccccc1)N(CCC(C)(C)C)N=O)N=O)N=O 0%
CCCNC(=O)c1ccc2c(=O)c(O)c(-c3cccc(Br)c3)[nH]c2c1 0%
CC(=O)OCC(=O)NCCCOc1cccc(CN2CCCCC2)c1 -3.85%
COCCCNc1nnc(Cc2ccc(Cl)cc2)c(=O)[nH]1 -8.17%
Oc1ccc2ccccc2c1N=Nc1nccs1 17.8%
CCOc1ccc2c(c1)C(C)=CC(C)(C)N2S(=O)(=O)c1ccc(F)cc1 12.9%
O=C(NCc1ccccc1)C(c1ccc(-c2ccccc2)cc1)n1c(=O)c(-c2cc3ccccc3[nH]2)nc2ccccc21 (stereo not drawn) -16%
COCCNC(=O)C1CCCN(C(=O)c2ccc3sccc3c2)CC1 (stereo not drawn) 16.7%
COc1cc(NC(=O)COC(=O)c2n[nH]c3ccccc23)c(C)cc1[N+](=O)[O-] 13.3%
CC(C)Cc1ccc(-c2cc3nc(NCc4cccc(Cl)c4)ccn3n2)cc1 -17.9%
C[C@H]1CN([C@@H](C)CO)C(=O)c2cccc(NC(=O)Nc3ccc(C(F)(F)F)cc3)c2O[C@H]1CN(C)C(=O)NC1CCCCC1 -5.3%
COc1cc(C(=O)N2CCC(C(N)=O)CC2)ccc1OCc1c(C)noc1C 0%
Cc1cc(Br)c(NC(=O)C(C)Sc2nnnn2C)c(Br)c1 (stereo not drawn) 17.9%
O=C(O)C1=C[C@@H](O)[C@@H](O)[C@H](O)C1 -6.67%
COC(=O)C[C@@H]1CC[C@@H]2[C@H](COc3ccc(NC(=O)c4cc(C)on4)cc3C(=O)N2C)O1 -8.74%
COc1ccc(C(=O)OCC(=O)N2C(C)CCCC2C)cc1S(=O)(=O)N1CCOCC1 (stereo not drawn) 14.8%
CCOc1ccc(S(=O)(=O)N2CCCCC2)cc1NC(=O)c1ccccc1 10.3%
Cc1cc(NCc2ccccn2)n2nc(C)c(-c3ccccc3)c2n1 13.1%
O=C(Cc1ccccn1)NCC[C@H]1CC[C@@H](NC(=O)Nc2ccc(C(F)(F)F)cc2)[C@@H](CO)O1 7.14%
COc1cc(C(=O)NCC2CCCO2)ccc1OCc1ccc(Cl)cc1 (stereo not drawn) 6.25%
CCc1ccc(N2CC(C(=O)Nc3ccccc3N3CCCC3)CC2=O)cc1 (stereo not drawn) 6.67%
CC(=NNC(=S)N1CC2CCC(CC2)C1)c1cnccn1 23.3%
CCOC(=O)C1=CN(Cc2cccc(I)c2)S(=O)(=O)N(C)C1C (stereo not drawn) 11.3%
C[C@@H]1CN([C@@H](C)CO)C(=O)c2cc(C#CCN(C)C)cnc2O[C@H]1CN(C)Cc1ccc(-c2ccccc2)cc1 10.3%
COC(=O)c1[nH]c2c(c1C)C(=O)CC(c1cccc(OC)c1)C2 (stereo not drawn) 0%
Cc1cc(NCc2ccccn2)n2ncc(-c3ccccc3)c2n1 -3.33%
Cc1ccc(C)c(NC(=O)CCC(=O)N/N=C/c2cc([N+](=O)[O-])ccc2O)c1 16.4%
CCC(C(=O)OCC(=O)C1(O)CCC2C3CCC4=CC(=O)CCC4(C)C3C(O)CC21C)C(C)C (stereo not drawn) 23.3%
COc1ccccc1Cc1c(-c2ccc(Cl)cc2)nc2ccc(Br)cn12 -18.8%
CO[C@@H](CN(C)S(=O)(=O)c1ccc(C)cc1)[C@H](C)CN([C@H](C)CO)S(=O)(=O)c1cccc(Cl)c1 -7.14%
Cc1cc(/C=N/NC(N)=S)c(O)c(/C=N/NC(N)=S)c1 -20.2%
O=C(NCCCN1CCCC1=O)c1cc(S(=O)(=O)N2CCOCC2)c(Cl)cc1Cl -6.67%
COc1ccccc1N(C)S(=O)(=O)c1ccc(C(=O)Nc2nccs2)cc1 12.9%
O=C(c1cccc(F)c1)N1CC(=O)N2[C@@H](CO)[C@@H](c3ccc(C#Cc4ccc(F)cc4)cc3)[C@@H]2C1 0%
Cc1ccc(S(=O)(=O)N2CCOCC2)cc1NC(=O)COC(=O)c1ccc(Cl)nc1 12.9%
CCOc1ccc(Cl)cc1C1=CC(=O)C[C@H](c2ccc(OC)cc2)C1 6.88%
COc1ccc(S(=O)(=O)Cc2ccc(C(=O)N3CCN(c4cccc(C)c4)C(C)C3)o2)cc1 (stereo not drawn) 6.67%
COc1ccc(C)cc1NC(=O)C(OC(=O)c1ccc(Cl)c(S(=O)(=O)N(C)c2ccccc2)c1)c1ccccc1 (stereo not drawn) 16%
CCCCCCCCCC(=O)OCC(O)CO (stereo not drawn) 3.33%
COCCSc1ccccc1C(=O)Nc1cc([N+](=O)[O-])ccc1OC -6.67%
CC(C)CN(CCCNC(=O)CN1C(=O)CSc2ccc(S(=O)(=O)N3CCOCC3)cc21)CC(C)C 6.25%
COC(=O)COc1cccc2c(=O)n(CC(=O)NCc3ccccc3)ccc12 -11.9%
O=C1c2ccccc2C(=O)c2c1cccc2N1CCCC1 0%
C[C@@H]1CN([C@H](C)CO)S(=O)(=O)c2ccc(-c3ccc(C#N)cc3)cc2O[C@H]1CN(C)Cc1ccccn1 -10.7%
O=C1/C(=C\c2ccc(O)cc2)SC(=S)N1Cc1ccccc1 -6.67%
COc1ccccc1NC(=O)C(=O)NCC(c1ccco1)N1CCc2ccccc21 (stereo not drawn) 10%
CCN(CC(=O)Nc1c(F)cccc1F)C(=O)C1CC1 0%
Cc1cc(O)cc2c1C1CCC3(C)C(=O)CCC3C1C=C2 (stereo not drawn) 2.68%
Cc1cc2oc(C(=O)NCCc3ccc(S(N)(=O)=O)cc3)c(C)c2cc1C 9.79%
CN(Cc1cccs1)C(=O)c1cccc(S(=O)(=O)N2CCCCCC2)c1 10%
NS(=O)(=O)c1cc(C2(O)NC(=O)c3ccccc32)ccc1Cl (stereo not drawn) 3.33%
COc1cc(C(=O)c2cocc2C(=O)c2ccc3c(c2)OCO3)cc(OC)c1OC 6.46%
CCN[C@H]1CN(CCCOC)S(=O)(=O)c2sc(S(N)(=O)=O)cc21 -9.79%

An excerpt from above in order of molecular weight, low to high.
Activity change, negative = more quenching (active), inactive:
CCN(CC(=O)Nc1c(F)cccc1F)C(=O)C1CC1 0%
COc1ccc2c(c1)sc(N)[n+]2Cc1cc(C)cc2cccnc12 13.3%
O=C(c1cccc(F)c1)N1CC(=O)N2[C@@H](CO)[C@@H](c3ccc(C#Cc4ccc(F)cc4)cc3)[C@@H]2C1 0%

2 entries picked at random from those above, as already listed:
Activity change, negative = more quenching (active), inactive:
CCN[C@H]1CN(CCCOC)S(=O)(=O)c2sc(S(N)(=O)=O)cc21 -9.79%
COc1cc(OC)c2c(-c3cccc(-c4ccc(OC)c(F)c4)c3)cc(=O)oc2c1 6.67%

From PubChem BioAssay AID743402 (Broad Institute, 2014)
